The record followed here is ChEMBL document CHEMBL4296183, “CO-ADD screening of NIH NCI Natural Product Set III” (2020).

Molecules are shown by their SMILES. Some of the results follow. Measured potencies and affinities stand elsewhere.

The test system of this experiment is Pseudomonas aeruginosa. The following applies: Concentration 20 uM; ASSAY_TEST Inhibition of Bacterial Growth; detection method Absorption (OD600); MEDIA CAMHB; plate type 384well; NBS; CORNING #3640; time 18 hr.
Usually Inhibition stands for the change of the read-out against control, counted positive when it falls. On to `CC12C(=O)C=CCC1=CCC1C2CCC2(O)C(=O)OC3(C)C4CC5(C)C(COC16OC23C5C6=O)C(=O)O4` (stereo not given), for which the Inhibition is on record as 11.11%.
Turning to `COc1ccc2c(c1OC)CN1CCc3cc4c(cc3C1C2)OCO4` (stereo not given) [TETRAHYDROBERBERINE], the Inhibition was 8.62%.
On to `CC1CCC2C(C)C(=O)OC3OC4(C)CCC1C32OO4` (stereo not given), for which the Inhibition is 14.6%.
For the compound `COc1ccc2c3c([nH]c2c1)[C@H](C=C(C)C)N1C(=O)[C@@H]2CCCN2C(=O)[C@@H]1C3` [FUMITREMORGIN], the Inhibition was 5.98%.
Consider `COC1C(O)C(C)OC(OC2C(Oc3cccc4c(O)c5c(=O)oc6ccc(C)c7c(=O)oc(c34)c5c67)OC(C)C(O)C2O)C1O` (stereo not given), for which the Inhibition worked out at 4.96%.
With `COc1cccc2c1cc([N+](=O)[O-])c1c(C(=O)O)cc3c(c12)OCO3` [ARISTOLOCHIC ACID] the figure was 7.59%; with `C=C1C(=O)O[C@@H]2C[C@@H](C)[C@@H]3C=CC(=O)[C@@]3(C)[C@@H](O)[C@H]12` [HELENALIN], 6.82%; with `CCN1C[C@]2(COC)[C@H](O)C[C@H](OC)[C@]34C1[C@H]([C@H](OC)[C@H]23)[C@]1(OC(C)=O)[C@H]2[C@@H](OC(=O)c3ccccc3)[C@](O)(C[C@H]24)[C@@H](OC)[C@@H]1O`, 6.99%.
As to `CC(C)(O)C1C2OC(=O)C1C1(O)CC3OC34C(=O)OC2C14C` (stereo not given), the Inhibition came out at 9.3%.
The value for `CC(=O)OC(C)(C)/C=C/C(=O)[C@](C)(O)[C@H]1[C@H](O)C[C@@]2(C)[C@@H]3CC=C4[C@@H](C=C(O)C(=O)C4(C)C)[C@]3(C)C(=O)C[C@]12C` [CUCURBITACIN E] was 1.68%; that for `O=P1(N(CCCl)CCCl)NCCCO1` (stereo not given) [CYCLOPHOSPHAMIDE ANHYDROUS] was 15.65%.
For `CC1CCC2C(C)C3C(CC4C5CC=C6CC(OC7OC(CO)C(O)C(OC8OC(CO)C(O)C(O)C8O)C7OC7OC(C)C(O)C(O)C7O)CCC6(C)C5CCC43C)N2C1.Cl` (stereo not given), the Inhibition was determined as 1.35%.
On to `COc1ccc(C(=O)O[C@H]2CC[C@@]3(C)[C@@H]4CC[C@H]5[C@]6(O)C[C@H](O)[C@@]7(O)[C@@H](CN8C[C@@H](C)CC[C@H]8[C@@]7(C)O)[C@]6(O)C[C@@]53OC24O)cc1OC`, for which the Inhibition is on record as 11.38%.
The value for `C1CCC(NC2CCCCC2)CC1.COC1C(OC(=O)/C=C/C=C/C=C/C=C/C(=O)O)CCC2(CO2)C1C1(C)OC1CC=C(C)C` (stereo not given) was 15.35%; that for `C=C1C(=O)OC2C1CCC(C)C1(O)C=CC(=O)C21C` (stereo not given) was -0.11%; that for `CCCCCC(O)C1C(=O)OC(C)C(O)/C=C/C=C/C=C/C=C/C=C(\C)C(O)C(O)C(O)CC(O)CC(O)CC(O)CC(O)CC1O` (stereo not given) was 9.17%.
With `CC[C@](C)(O)C(=O)O[C@H]1C(=O)O[C@@H]2C[C@H]3C(C)=C[C@H](O)[C@@H](O)[C@]3(C)[C@H]3[C@@]4(O)OC[C@]32[C@@H]1[C@@H](C)[C@H]4O` the figure was 10.88%; with `OC1CN2CC[C@H](O)[C@@H]2C(O)[C@@H]1O` (stereo not given in full), 5.53%; with `CC(=O)O[C@@H]1[C@@H](O)C2=C3[C@]4(C)[C@@H]1C(C)(C)C(=O)C[C@@H]4[C@]3(O)[C@H](OC(C)=O)[C@@]1(C[C@@H]1C)C2=O`, 9.27%.
As for `C=C1C(C)C2C(Cc3ccccc3)NC(=O)C23C(OC(C)=O)/C=C/C(C)(O)CC(C)C/C=C/C3C1O` (stereo not given), the Inhibition is recorded as 0.72%.
The value for `CN1CCc2cc3c(cc2[C@H]1[C@@H]1OC(=O)c2c1ccc1c2OCO1)OCO3` [BICUCULLINE] was 17.91%; that for `COc1ccc2c(c1O)-c1c(OC)c(OC)cc3c1C(C2)N(C)CC3` (stereo not given) was 17.01%.
The value for `CO[C@@H]1[C@H](O)CC[C@]2(CO2)[C@H]1[C@@]1(C)O[C@@H]1CC=C(C)C` was 6.36%.
As for `CC[C@H]1CN2CCc3cc(OC)c(OC)cc3[C@@H]2C[C@@H]1C[C@H]1NCCc2c1[nH]c1ccc(O)cc21` [TUBULOSINE], the Inhibition was 10.54%.
The value for `COc1c2c(c(CC=C(C)C)c3oc(=O)c(-c4ccc(O)cc4)c(O)c13)OC(C)(C)C=C2` [LONCHOCARPIC ACID] was 8.58%.
With `C[C@H]1CCC/C=C/[C@@H]2C[C@H](O)C[C@H]2[C@H](O)/C=C/C(=O)O1` [BREFELDIN A] the figure was 10.94%; with `CCC/C=C/C=C/C(=O)OC1/C(=C/C(=O)OC)CC2CC(C(C)O)OC(=O)CC(O)CC3CC(OC(C)=O)C(C)(C)C(O)(CC4C/C(=C/C(=O)OC)CC(/C=C/C(C)(C)C1(O)O2)O4)O3` (stereo not given), 12.17%; with `CC[C@@]1(O)C(=O)OCc2c1cc1n(c2=O)Cc2cc3ccccc3nc2-1` [CAMPTOTHECIN], 11.38%.
With `CC1OC(=O)C2CC3CCCCC3C(/C=C/C3CCCC(C)N3C)C12` (stereo not given) the figure was 8.42%; with `CC(O)CCC(=O)c1ccoc1` (stereo not given), -0.58%.
